Measurements from US20220251241A1.
These are yes or no findings as the source states them, for the method shown. Some entries that bind do so weakly or less than the wild type.

Amino acid sequences for entries named in this document (tags omitted). A change or cut given only in a name is not applied to a line headed by its entry.
UniProt Q92743: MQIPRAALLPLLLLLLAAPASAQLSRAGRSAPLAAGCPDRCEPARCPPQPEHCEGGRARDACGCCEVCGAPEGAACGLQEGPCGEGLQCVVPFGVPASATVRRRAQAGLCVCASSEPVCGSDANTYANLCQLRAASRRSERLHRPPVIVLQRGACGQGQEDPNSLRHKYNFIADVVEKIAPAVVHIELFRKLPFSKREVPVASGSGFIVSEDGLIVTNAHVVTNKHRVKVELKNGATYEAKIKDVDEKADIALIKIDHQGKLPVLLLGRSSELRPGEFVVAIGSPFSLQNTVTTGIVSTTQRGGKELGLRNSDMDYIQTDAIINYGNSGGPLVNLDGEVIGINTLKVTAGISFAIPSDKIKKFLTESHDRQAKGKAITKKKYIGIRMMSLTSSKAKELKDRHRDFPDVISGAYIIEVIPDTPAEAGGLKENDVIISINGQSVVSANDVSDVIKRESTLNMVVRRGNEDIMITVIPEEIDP

Legend:
[1] = molecular target: HTRA1 (construct not given) (Homo sapiens (Human)) (UniProt Q92743); assay: SPR (Biacore), captured hz24F7.v2 samples stored 0, 2, 4 and 8 weeks at pH 7.4, 40 C, HTRA1 injected (Table 14)
[2] = molecular target: HTRA1 (construct not given) (Homo sapiens (Human)) (UniProt Q92743); assay: SPR (Biacore), 25° C.; hz24F7.v2 samples stored at pH 7.4, 40° C. for 0 to 8 weeks
[3] = molecular target: HTRA1 (construct not given) (Homo sapiens (Human)) (UniProt Q92743); assay: SPR (Biacore), FIG. 14
[4] = molecular target: HTRA1 (construct not given) (Homo sapiens (Human)) (UniProt Q92743); assay: SPR (Biacore)
[5] = molecular target: HTRA1 (construct not given) (Homo sapiens (Human)) (UniProt Q92743); assay: SPR (Biacore) and enzyme assay, summary of Example 11

| binding [4] | Binder | further results |
| --- | --- | --- |
| binds | antibody hz24F7.v2 (antibody, human IgG1, kappa, N297G, V domains shown) VH: QVQLVQSGAEVKKPGASVKVSCKASGYTFTDYEMHWVRQAPGQRLEWMGAIDPETGGTAYNQKFKGRVTITADKSASTAYMELSSLRSEDTAVYYCTREGYSYEGGGYYFDYWGQGTLVTVSS VL: DIQMTQSPSSLSASVGDRVTITCSVSSSVSYMYWYQQKPGKAPKLLIYDTSNLASGVPSRFSGSGSGTDFTFTISSLQPEDIATYYCQQWSSYPTFGQGTKLEIKR | binding [1]: binds; binding [2]: binds; binding [3]: binds |
| binds | hz24F7.v2 S92D (antibody, human IgG1, kappa, N297G, V domains shown) VH: QVQLVQSGAEVKKPGASVKVSCKASGYTFTDYEMHWVRQAPGQRLEWMGAIDPETGGTAYNQKFKGRVTITADKSASTAYMELSSLRSEDTAVYYCTREGYSYEGGGYYFDYWGQGTLVTVSS VL: DIQMTQSPSSLSASVGDRVTITCSVSSSVSYMYWYQQKPGKAPKLLIYDTSNLASGVPSRFSGSGSGTDFTFTISSLQPEDIATYYCQQWSDYPTFGQGTKLEIKR |  |
| binds | hz24F7.v2 S92Y (antibody, human IgG1, kappa, N297G, V domains shown) VH: QVQLVQSGAEVKKPGASVKVSCKASGYTFTDYEMHWVRQAPGQRLEWMGAIDPETGGTAYNQKFKGRVTITADKSASTAYMELSSLRSEDTAVYYCTREGYSYEGGGYYFDYWGQGTLVTVSS VL: DIQMTQSPSSLSASVGDRVTITCSVSSSVSYMYWYQQKPGKAPKLLIYDTSNLASGVPSRFSGSGSGTDFTFTISSLQPEDIATYYCQQWSYYPTFGQGTKLEIKR |  |
| binds | hz24F7.v2 S91L (antibody, human IgG1, kappa, N297G, V domains shown) VH: QVQLVQSGAEVKKPGASVKVSCKASGYTFTDYEMHWVRQAPGQRLEWMGAIDPETGGTAYNQKFKGRVTITADKSASTAYMELSSLRSEDTAVYYCTREGYSYEGGGYYFDYWGQGTLVTVSS VL: DIQMTQSPSSLSASVGDRVTITCSVSSSVSYMYWYQQKPGKAPKLLIYDTSNLASGVPSRFSGSGSGTDFTFTISSLQPEDIATYYCQQWLSYPTFGQGTKLEIKR |  |
| binds | hz24F7.v2 S92T (antibody, human IgG1, kappa, N297G, V domains shown) VH: QVQLVQSGAEVKKPGASVKVSCKASGYTFTDYEMHWVRQAPGQRLEWMGAIDPETGGTAYNQKFKGRVTITADKSASTAYMELSSLRSEDTAVYYCTREGYSYEGGGYYFDYWGQGTLVTVSS VL: DIQMTQSPSSLSASVGDRVTITCSVSSSVSYMYWYQQKPGKAPKLLIYDTSNLASGVPSRFSGSGSGTDFTFTISSLQPEDIATYYCQQWSTYPTFGQGTKLEIKR |  |
| binds | hz24F7.v2 S91T (antibody, human IgG1, kappa, N297G, V domains shown) VH: QVQLVQSGAEVKKPGASVKVSCKASGYTFTDYEMHWVRQAPGQRLEWMGAIDPETGGTAYNQKFKGRVTITADKSASTAYMELSSLRSEDTAVYYCTREGYSYEGGGYYFDYWGQGTLVTVSS VL: DIQMTQSPSSLSASVGDRVTITCSVSSSVSYMYWYQQKPGKAPKLLIYDTSNLASGVPSRFSGSGSGTDFTFTISSLQPEDIATYYCQQWTSYPTFGQGTKLEIKR |  |
| binds | hz24F7.v2 S91Y (antibody, human IgG1, kappa, N297G, V domains shown) VH: QVQLVQSGAEVKKPGASVKVSCKASGYTFTDYEMHWVRQAPGQRLEWMGAIDPETGGTAYNQKFKGRVTITADKSASTAYMELSSLRSEDTAVYYCTREGYSYEGGGYYFDYWGQGTLVTVSS VL: DIQMTQSPSSLSASVGDRVTITCSVSSSVSYMYWYQQKPGKAPKLLIYDTSNLASGVPSRFSGSGSGTDFTFTISSLQPEDIATYYCQQWYSYPTFGQGTKLEIKR | binding [5]: binds |
| binds | hz24F7.v2 S91A (antibody, human IgG1, kappa, N297G, V domains shown) VH: QVQLVQSGAEVKKPGASVKVSCKASGYTFTDYEMHWVRQAPGQRLEWMGAIDPETGGTAYNQKFKGRVTITADKSASTAYMELSSLRSEDTAVYYCTREGYSYEGGGYYFDYWGQGTLVTVSS VL: DIQMTQSPSSLSASVGDRVTITCSVSSSVSYMYWYQQKPGKAPKLLIYDTSNLASGVPSRFSGSGSGTDFTFTISSLQPEDIATYYCQQWASYPTFGQGTKLEIKR |  |
| binds | antibody 24F7 (antibody, V domains shown) VH: QVQLQQSGAELVRPGASVKLSCKASGYTFTDYEMHWVKQTPVHGLEWIGAIDPETGGTAYNQKFKGKATLTADKSSSTAYMELRSLTSEDSAVYYCTREGYSYDGGGYYFDYWGQGTTLTVSS VL: QIVLTQSPAIMSASPGEKVTMTCSVSSSVSYMYWYQQKPGSSPRLLIYDTSNLASGVPVRFSGSGSGTSYSLTISRMEAEDAATYYCQQWSSYPTFGGGTKLEIK |  |
